## Primary screen of a compound library

By UniProt entry, the sequences of proteins in these tests, tags left out.
UniProt P9WFT3, whole entry: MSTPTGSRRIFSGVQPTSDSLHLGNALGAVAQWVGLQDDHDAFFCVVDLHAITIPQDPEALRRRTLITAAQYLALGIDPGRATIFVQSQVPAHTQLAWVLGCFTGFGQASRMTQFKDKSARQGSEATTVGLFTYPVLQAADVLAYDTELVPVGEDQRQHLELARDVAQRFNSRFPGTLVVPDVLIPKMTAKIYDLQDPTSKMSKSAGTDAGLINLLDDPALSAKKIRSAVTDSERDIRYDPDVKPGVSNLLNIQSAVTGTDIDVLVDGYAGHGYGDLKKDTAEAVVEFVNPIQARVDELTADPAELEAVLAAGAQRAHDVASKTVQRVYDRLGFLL
UniProt P9WPC5, whole entry: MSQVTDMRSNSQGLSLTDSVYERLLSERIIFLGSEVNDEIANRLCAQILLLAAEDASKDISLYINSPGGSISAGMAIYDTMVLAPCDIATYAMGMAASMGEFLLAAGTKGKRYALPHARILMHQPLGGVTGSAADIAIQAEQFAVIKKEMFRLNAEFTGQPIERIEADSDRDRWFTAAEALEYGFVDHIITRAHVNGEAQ
UniProt P9WPC3, whole entry partner: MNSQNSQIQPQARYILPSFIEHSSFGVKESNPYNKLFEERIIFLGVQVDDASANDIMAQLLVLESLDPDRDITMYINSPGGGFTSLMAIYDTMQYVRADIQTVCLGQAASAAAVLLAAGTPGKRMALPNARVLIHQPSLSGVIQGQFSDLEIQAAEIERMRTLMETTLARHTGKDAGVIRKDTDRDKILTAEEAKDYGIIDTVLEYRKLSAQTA
UniProt P9WNZ1, whole entry: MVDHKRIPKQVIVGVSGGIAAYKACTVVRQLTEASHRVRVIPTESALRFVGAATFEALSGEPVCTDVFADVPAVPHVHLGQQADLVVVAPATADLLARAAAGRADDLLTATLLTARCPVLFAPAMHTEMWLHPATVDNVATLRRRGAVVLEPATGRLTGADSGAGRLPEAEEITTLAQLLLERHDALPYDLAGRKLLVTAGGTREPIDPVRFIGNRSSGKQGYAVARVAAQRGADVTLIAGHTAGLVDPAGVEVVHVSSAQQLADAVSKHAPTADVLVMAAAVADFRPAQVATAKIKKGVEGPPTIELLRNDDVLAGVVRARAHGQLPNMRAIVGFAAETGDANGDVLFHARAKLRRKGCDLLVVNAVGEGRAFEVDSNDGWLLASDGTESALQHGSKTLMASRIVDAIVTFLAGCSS
UniProt I6X8D2, whole entry: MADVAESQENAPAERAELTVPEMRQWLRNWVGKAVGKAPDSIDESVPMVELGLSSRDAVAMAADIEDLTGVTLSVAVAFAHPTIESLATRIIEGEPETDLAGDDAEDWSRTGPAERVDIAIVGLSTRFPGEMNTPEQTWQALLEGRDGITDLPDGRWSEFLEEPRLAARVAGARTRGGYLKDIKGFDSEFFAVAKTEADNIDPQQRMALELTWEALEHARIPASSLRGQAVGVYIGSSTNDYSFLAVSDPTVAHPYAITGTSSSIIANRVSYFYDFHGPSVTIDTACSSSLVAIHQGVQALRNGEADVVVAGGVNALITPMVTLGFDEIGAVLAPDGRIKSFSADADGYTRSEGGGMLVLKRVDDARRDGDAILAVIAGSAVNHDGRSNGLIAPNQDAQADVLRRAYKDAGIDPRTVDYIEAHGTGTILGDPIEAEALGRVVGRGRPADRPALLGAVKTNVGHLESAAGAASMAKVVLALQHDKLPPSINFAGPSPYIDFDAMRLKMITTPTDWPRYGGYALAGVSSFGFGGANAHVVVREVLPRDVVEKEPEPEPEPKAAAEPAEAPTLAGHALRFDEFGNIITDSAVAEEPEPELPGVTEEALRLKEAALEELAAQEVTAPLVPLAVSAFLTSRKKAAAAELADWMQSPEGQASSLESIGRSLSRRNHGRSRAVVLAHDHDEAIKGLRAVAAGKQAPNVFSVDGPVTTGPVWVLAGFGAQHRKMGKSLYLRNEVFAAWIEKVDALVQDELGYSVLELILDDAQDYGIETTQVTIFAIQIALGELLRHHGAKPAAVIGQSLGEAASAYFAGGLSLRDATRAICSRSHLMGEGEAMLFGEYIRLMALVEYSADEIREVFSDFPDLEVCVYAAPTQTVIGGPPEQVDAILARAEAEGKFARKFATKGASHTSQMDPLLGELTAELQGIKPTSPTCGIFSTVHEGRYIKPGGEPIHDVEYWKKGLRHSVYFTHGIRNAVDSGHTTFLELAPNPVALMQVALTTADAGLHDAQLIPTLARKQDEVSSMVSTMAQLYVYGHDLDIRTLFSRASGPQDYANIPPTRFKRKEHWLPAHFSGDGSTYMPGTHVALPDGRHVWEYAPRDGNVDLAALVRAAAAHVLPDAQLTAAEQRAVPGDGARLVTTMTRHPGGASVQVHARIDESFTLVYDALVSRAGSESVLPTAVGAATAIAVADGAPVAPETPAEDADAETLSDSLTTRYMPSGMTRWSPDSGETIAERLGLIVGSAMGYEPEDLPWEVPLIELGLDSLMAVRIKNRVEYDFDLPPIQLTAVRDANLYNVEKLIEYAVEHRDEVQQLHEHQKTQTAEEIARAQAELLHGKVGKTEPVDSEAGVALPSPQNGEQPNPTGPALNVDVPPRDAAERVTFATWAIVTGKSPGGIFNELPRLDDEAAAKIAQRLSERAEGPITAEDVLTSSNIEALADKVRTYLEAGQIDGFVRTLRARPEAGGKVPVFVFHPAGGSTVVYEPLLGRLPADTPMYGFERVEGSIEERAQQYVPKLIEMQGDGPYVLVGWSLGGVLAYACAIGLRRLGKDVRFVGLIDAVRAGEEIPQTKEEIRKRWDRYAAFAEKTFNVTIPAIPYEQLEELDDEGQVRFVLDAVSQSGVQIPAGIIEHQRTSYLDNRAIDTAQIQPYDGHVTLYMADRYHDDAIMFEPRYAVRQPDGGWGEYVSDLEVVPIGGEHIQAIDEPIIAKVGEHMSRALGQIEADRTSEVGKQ

Values are the deposited “Percent Effect”, in %.
How 0% and 100% were set is not recorded. Most values in the screen are low, and negative values occur.
Compounds were drawn at random from those tested, without regard to their results.
A dash means the value is not listed here; it may have been measured.

MtTrpRS: 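Enzyme assay of tryptophanyl-tRNA synthetase; the read-out is not stated. Target: Tryptophan-tRNA ligase, Mycobacterium tuberculosis (UniProt P9WFT3). Compounds at 10 µM. Higher most likely means stronger inhibition; the record gives no direction and few retests gave an IC50. Size under these conditions: about 65,000 compounds, about 64 of them at 50% or above in at least one test.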
Toxoplasma: 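Assay of Toxoplasma gondii numbers, read through their beta-galactosidase reporter with a colour substrate. Compounds at 10 µM. The record gives no direction; the compounds picked for IC50 retests had high values, so higher reads as fewer parasites. About 67,000 compounds were tested under these conditions; 0.38% (about 260) showed 50% or more at least once.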
ClpP1P2: 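Protease assay of ClpP1P2, read by the AMC dye that it sets free. Target: ClpP1P2, Mycobacterium tuberculosis (UniProt P9WPC5 and UniProt P9WPC3). Compounds at 50 µM. Higher reads as stronger inhibition, judged from the few compounds that gave an IC50. Most other retested compounds had strongly negative values. Size under these conditions: about 69,000 compounds, about 10 of them at 50% or above in at least one test.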
CoaBC: 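Coenzyme A biosynthesis protein CoaBC, Mycobacterium tuberculosis (UniProt P9WNZ1). Enzyme assay of CoaBC with a phosphate dye (Biomol Green) read at 650 nm. Compounds at 30 µM. Direction is inferred from only a few compounds that gave an IC50; most scored high, so higher reads as stronger inhibition. Most strong results did not repeat in a second test. Size under these conditions: about 67,000 compounds, about 40 of them at 50% or above in at least one test.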
Pks13 thioesterase: 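Enzyme assay of the thioesterase domain of polyketide synthase 13; the read-out is not stated. Target: Polyketide synthase Pks13, Mycobacterium tuberculosis (UniProt I6X8D2). Compounds at 30 µM. The record gives no direction; the compounds picked for IC50 retests had high values, so higher reads as stronger inhibition. Size under these conditions: about 67,000 compounds, about 300 of them at 50% or above in at least one test.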

SMILES,MtTrpRS,Toxoplasma,ClpP1P2,CoaBC,Pks13 thioesterase
CNC(=O)c1cccc(NCC(=O)Nc2cc(C)nn2C)c1C,4.175,3.725,7.615,8.293,-
CNC(=O)C1CN(C(=O)c2ccccc2)Cc2cn(C)nc21 (centres undefined),5.013,5.429,-0.8004,-5.672,-10.06
Cl.FC(F)Oc1ccc(CNCc2cc(Cl)c3c(c2)OCO3)cc1,-,1.81,-,-,-
CC1CCN(CCNC(=O)C2CCN(S(N)(=O)=O)CC2)CC1,-4.55,-8.782,1.741,-5.907,-12.42
COCCN1CCO[C@@H]2CN(C(=O)COc3ccc(C)cc3)C[C@@H]2C1,3.56,-,-9.749,-,-28.09
O=C(Cc1ccsc1)N1Cc2nc(CN3CCCCC3)oc2C1,-,-,-4.179,2.475,-12.06
CN1CCCc2cc(-c3cncn3CCNC3CCS(=O)(=O)C3)ccc21 (centres undefined),-6.59,-,-12.27,10.69,19.83
CCc1ccc(CN2C[C@H](OC)[C@H]3COC[C@H]32)o1,-,-,12.42,1.951,-5.962
CN(CC(=O)NCCc1cc2ccccc2o1)S(C)(=O)=O,6.455,0.6866,-0.4688,-9.13,4.242
O=C(COc1ccc2c(c1)CCC2)N1CCOCC1c1ncon1 (centres undefined),-1.8,-1.781,-6.092,4.626,-4.622
CCc1nnc(CN(C)c2nccc(CCC(F)(F)F)n2)o1,2.374,16.83,-1.716,-,-35.48
CS(=O)(=O)NC[C@]12COC[C@H]1CN(C(=O)c1ccoc1)C2,-1.654,-,-12.35,-0.6337,-16.91
COCCN1CCCC2(CCC(=O)N2Cc2cccnc2)C1 (centres undefined),11.48,-,-3.18,0.6435,-51.72
CC(=O)N1CCC(C(=O)N(C)[C@@H]2CCC[C@@H](N3CCCC3)[C@@H]2O)CC1,-1.923,34.27,3.547,-2.222,-6.639
CC(O)(CNc1ccc(Cl)c(C#N)n1)c1ccccc1 (centres undefined),-1.342,3.121,12.33,-0.8929,-30.4
Cc1cc(C(=O)NS(C)(=O)=O)c(C)n1-c1ccccc1,-5.96,7.081,-8.047,-0.5249,-9.11
CCN1CCN(C)C(=O)C12CCN(Cc1cccc(C)c1)CC2.O=C(O)C(F)(F)F,-,4.72,-,-,-
COCC1CN(S(=O)(=O)c2cccs2)Cc2ncnn2C1 (centres undefined),-11.04,6.788,-2.379,2.463,-
COCc1noc(Cn2ccc3ccccc3c2=O)n1,0.6299,4.822,-11.01,2.558,-32.07
Cn1ccc(NC(=O)NC2CCCN(c3ccccc3Cl)C2=O)n1 (centres undefined),-2.594,-13.04,-5.289,4,34.29
CC(C)Oc1ccc2c(NC(=O)[C@H](C)O)nn(CC(F)(F)F)c2c1,-1.36,-5.046,-15.4,4.342,-24.45
CCO[C@@H]1CCN(c2ccc(C)nn2)[C@@H]1Cc1cnn(C)c1,-6.799,6.957,10.96,3.059,-18.09
COc1ccc(C)cc1CC(=O)N1CC[C@@]2(CCCO2)[C@@H](O)C1,-,-4.912,-8.375,2.427,-
CC(C)N1CCC(c2cnc(-c3cn[nH]c3)cn2)CC1,-5.673,26.81,-15.81,0.2466,4.497
Cc1cnc(N2CCOC3(CCCN(C(=O)C(C)C)C3)C2)nc1 (centres undefined),-1.058,-10.87,-3.28,3.75,-25.42
CNCCCNc1nc(C2CCCC2)nc2c1cnn2C,-6.061,14.68,-9.038,-0.6061,-4.826
Cc1n[nH]c(C)c1NC(=O)CN1CCCC1c1noc(C(C)C)n1 (centres undefined),6.329,16.28,15.56,1.419,-23.47
Cc1cnn(C2CN(CCOc3ccc(C#N)cc3)C2)c1,6.395,16.83,2.373,2.642,-7.887
CN1C(=O)CC(c2cnn(C)c2)C12CCN(C(=O)C1CC=CC1)CC2 (centres undefined),-0.4359,-0.1614,1.532,10.54,-15.28
CCc1nnc(CS(=O)(=O)c2ccc(C)cc2)n1C,-1.354,-4.175,-14.66,10.62,-6.717
CCC(C)NC(=O)c1ccccc1-n1cnnn1 (centres undefined),0.7105,0,-1.598,-9.821,-8.891
Cc1cc(CNC(=O)N2CCc3ccccc3C2CO)c(C)o1 (centres undefined),-3.039,1.591,4.822,3.502,-1.604
COc1ccc2c(C)c(C(=O)N3CCC(NC(C)=O)C3)oc2c1 (centres undefined),1.5,-17.37,-6.566,2.386,-20.98
COC(=O)c1cccc(CNC(=O)CCC(F)(F)F)c1,-2.028,-0.3793,-2.796,4.487,-40.69
CC(=O)N1CCC1c1nc(-c2ccc(C)s2)no1 (centres undefined),13.12,-28.11,-13.18,-5.569,-4.785
Cc1cc(=O)n2ncnc2n1CC(O)c1ccccc1F (centres undefined),1.806,-5.243,-17.42,-3.902,47.02
COCCN1CCN(Cc2cnc(C(C)C)nc2)CC1,18.26,-9.19,-2.508,4.38,-
COc1ccccc1-c1cc(NC(=O)CCS(=O)(=O)C2CCCC2)[nH]n1,-0.1818,4.777,10.88,2.174,-8.578
CC(C)OC(=O)N1CCCCC1CCn1cccn1 (centres undefined),-0.4817,5.181,3.451,4.783,-44.39
CN(C)CC1COCCN1C(=O)C1(c2cccs2)CCCC1.O=CO (centres undefined),-,9.339,-,-,-
CCC(=O)NC(c1ccc(C)cc1)c1cccc(S(C)(=O)=O)c1 (centres undefined),3.744,2.368,3.028,0.9709,-0.9442
CCN(CC)CCn1ccnc1-c1cccc(C#N)c1,-1.001,1.035,-5.076,5.622,-10.94
Cc1ccc(CC(=O)N2CCCC2Cn2nc(C)cc2C)cn1 (centres undefined),-4.237,14.65,-22.93,1.513,-13.9
COc1c(CNCC(O)c2ccccc2F)c(C(C)C)nn1C (centres undefined),20.84,-9.028,6.531,-2.968,-31.58
NC(=O)N1CCCC(C(=O)NCCOc2ccc(F)c(F)c2)C1 (centres undefined),6.893,4.402,5.81,4.466,-26.36
Cc1nc(CN2CCO[C@@H]3CN(Cc4ccccn4)CC[C@@H]3C2)cs1,-2.267,-,-1.41,-7.983,-6.857
CCCN(CCC)C(=O)c1cnn(C)c1C,2.592,-3.79,-6.46,-1.392,-24.38
CCCC(=O)NC(C)c1nnc2n1CCC2 (centres undefined),-4.641,-16.09,5.539,1.434,-
N#Cc1cccc(C(=O)N2CCn3c(Cn4cncn4)cnc3C2)c1,-5.231,1.1,-16.19,1.603,-30.54
O=C(C1CC(F)(F)C1)N1CC[C@H]2OCC[C@@]2(COCC2CC2)C1,1.066,-,-1.859,-,-27.47
O=C(c1ccc(=O)[nH]c1)N1C[C@@H]2CC[C@H](C1)N(Cc1ccccc1)C2,3.004,-,20.7,5.331,-12.78
COC[C@@H]1CCC[C@]12CN(S(=O)(=O)c1cn(C)cn1)CCO2,-,-16.94,-9.706,2.545,2.447
CN1CC=C(c2noc(CCC(=O)N3CCCC3)n2)CC1,7.566,6.076,-17.84,-0.5063,-3.825
[H][C@]12CC[C@]([H])(CN(Cc3ccncc3)C1)N(S(C)(=O)=O)C2,-,21,-,-,-
CCCc1nc(CN2CCCC(Cn3cncn3)C2)no1 (centres undefined),-2.047,5.231,2.947,6.005,-8.251
Cc1cnn(CC2CCN(CC(O)c3ccccc3)CC2)c1 (centres undefined),0.2742,4.162,-4.855,-3.871,11.62
COc1ccc(C(=O)N2CCC(Nc3cccnn3)CC2)cn1,0.7523,8.424,-6.949,5.222,-23.17
Cc1ccc(-c2nc3cc(S(=O)(=O)N4CCCC4)ccc3n2C)o1,-14,-15.05,1.424,6.709,-7.224
[H][C@@]12COC[C@]1(C(=O)N1CCCO1)CN(Cc1cnn(C)c1)C2,-,-11.13,-,-,-
CC(C)OCc1ncn2c1CN(Cc1cccs1)CCC2.O=C(O)C(F)(F)F,-,-1.022,-,-,-
Fc1cccc(O[C@@H]2C[C@H]3CN(Cc4ccccn4)CCN3C2)c1,-1.818,-,4.487,0.4831,9.688
Cc1nnc2n1CCN(CC(=O)NC(C)c1cccc3ccccc13)C2 (centres undefined),-0.9132,-1.1,-7.528,2.885,2.21

Data taken from ChEMBL document CHEMBL3988442, “University of Dundee, Small-Polar-MMV Screening Library” (2021).